Assay results reported in publication PMC9288479.
No constants are given. Whether binding was seen depends on the method and setting. Binding seen in cells or lysates may run through a third protein. Some entries that bind do so weakly or less than the wild type. Where a sequence is shown, tags or fusion partners need not be part of it. One block for each molecule: values may come before it.

Sequences of proteins named here, by UniProt entry; tags and fusion partners are left off. A change or cut given only in a name is not applied to a line headed by its entry. Residues count along the entry.
UniProt P36894, residues 24-532: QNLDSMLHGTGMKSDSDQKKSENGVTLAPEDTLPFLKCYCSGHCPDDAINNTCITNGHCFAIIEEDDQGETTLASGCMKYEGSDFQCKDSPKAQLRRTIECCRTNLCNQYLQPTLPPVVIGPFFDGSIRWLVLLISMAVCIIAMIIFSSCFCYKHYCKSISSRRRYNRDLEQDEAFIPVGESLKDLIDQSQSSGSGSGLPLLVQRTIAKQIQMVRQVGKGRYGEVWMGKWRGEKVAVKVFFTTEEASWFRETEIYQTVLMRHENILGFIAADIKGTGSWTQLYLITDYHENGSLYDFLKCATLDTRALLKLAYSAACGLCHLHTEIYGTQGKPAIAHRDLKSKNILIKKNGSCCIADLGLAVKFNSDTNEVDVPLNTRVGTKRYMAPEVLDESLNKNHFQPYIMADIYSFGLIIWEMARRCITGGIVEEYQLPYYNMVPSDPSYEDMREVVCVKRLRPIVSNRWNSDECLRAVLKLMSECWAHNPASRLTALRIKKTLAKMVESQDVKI
UniProt O00308: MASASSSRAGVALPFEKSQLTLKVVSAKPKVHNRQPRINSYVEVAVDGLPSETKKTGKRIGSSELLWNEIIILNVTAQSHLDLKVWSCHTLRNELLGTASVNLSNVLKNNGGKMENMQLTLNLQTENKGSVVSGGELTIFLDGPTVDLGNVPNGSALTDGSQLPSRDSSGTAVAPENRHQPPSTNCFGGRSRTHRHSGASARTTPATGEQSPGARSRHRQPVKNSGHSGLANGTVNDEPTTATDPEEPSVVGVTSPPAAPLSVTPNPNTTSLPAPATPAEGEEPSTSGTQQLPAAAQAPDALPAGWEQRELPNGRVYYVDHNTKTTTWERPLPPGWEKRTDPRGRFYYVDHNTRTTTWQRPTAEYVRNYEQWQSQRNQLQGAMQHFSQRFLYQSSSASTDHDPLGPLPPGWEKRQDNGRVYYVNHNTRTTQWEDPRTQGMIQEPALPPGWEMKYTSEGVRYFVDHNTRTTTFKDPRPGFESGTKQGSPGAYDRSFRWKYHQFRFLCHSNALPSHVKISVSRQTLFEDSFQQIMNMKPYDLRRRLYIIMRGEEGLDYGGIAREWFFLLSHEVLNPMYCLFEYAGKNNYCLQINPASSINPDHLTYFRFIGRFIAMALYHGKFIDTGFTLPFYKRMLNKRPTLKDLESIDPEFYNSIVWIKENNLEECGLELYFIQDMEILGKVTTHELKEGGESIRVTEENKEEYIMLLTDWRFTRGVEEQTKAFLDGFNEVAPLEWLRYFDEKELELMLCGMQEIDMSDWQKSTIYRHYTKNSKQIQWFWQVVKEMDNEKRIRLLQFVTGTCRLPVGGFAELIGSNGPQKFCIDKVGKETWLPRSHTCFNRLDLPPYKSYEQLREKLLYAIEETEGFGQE
UniProt Q9DBH0: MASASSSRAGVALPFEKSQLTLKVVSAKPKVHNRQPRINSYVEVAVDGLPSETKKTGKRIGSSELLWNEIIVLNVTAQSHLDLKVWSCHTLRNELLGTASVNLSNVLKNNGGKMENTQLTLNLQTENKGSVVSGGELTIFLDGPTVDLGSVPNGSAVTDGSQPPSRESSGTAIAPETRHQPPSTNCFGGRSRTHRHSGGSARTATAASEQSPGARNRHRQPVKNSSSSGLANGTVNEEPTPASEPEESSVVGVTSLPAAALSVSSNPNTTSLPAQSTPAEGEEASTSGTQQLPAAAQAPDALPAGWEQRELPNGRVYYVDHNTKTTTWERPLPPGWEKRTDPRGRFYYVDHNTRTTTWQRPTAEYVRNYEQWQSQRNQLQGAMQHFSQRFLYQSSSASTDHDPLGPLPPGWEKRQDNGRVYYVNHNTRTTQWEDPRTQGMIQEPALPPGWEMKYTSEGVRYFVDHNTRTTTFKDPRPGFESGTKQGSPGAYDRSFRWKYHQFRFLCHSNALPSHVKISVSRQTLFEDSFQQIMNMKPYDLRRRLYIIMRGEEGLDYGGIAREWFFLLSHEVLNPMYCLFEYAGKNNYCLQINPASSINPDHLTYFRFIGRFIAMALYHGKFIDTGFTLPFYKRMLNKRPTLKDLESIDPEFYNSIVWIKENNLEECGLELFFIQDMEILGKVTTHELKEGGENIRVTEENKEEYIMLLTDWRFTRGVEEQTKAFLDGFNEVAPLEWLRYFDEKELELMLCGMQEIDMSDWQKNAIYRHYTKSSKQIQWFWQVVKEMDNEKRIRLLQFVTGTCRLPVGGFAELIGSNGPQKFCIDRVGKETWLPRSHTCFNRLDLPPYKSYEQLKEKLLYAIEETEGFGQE

Legend:
[1] = target: T1, Flag-tagged human lysosomal protein transmembrane 5 (LAPTM5) (human) (UniProt Q13571); test: co-IP; IP and immunoblot of 786-O cells transfected with Flag-LAPTM5 and vector, Myc-tagged full-length WWP2 or deletion mutants
T1 sequence: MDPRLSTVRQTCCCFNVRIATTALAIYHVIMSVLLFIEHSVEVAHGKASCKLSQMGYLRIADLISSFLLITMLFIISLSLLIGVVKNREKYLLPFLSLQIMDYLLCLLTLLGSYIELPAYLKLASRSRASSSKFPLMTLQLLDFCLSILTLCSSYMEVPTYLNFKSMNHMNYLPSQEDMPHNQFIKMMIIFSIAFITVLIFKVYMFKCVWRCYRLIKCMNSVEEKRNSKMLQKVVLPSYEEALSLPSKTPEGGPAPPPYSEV

[2] = target: T2, LAPTM5 in 4T1^luci cells (not stated (murine 4T1 cells; human and mouse cDNA cloned)) (UniProt Q61168); test: co-IP; immunoprecipitation in 4T1^luci cells, with or without BMP4
T2 sequence: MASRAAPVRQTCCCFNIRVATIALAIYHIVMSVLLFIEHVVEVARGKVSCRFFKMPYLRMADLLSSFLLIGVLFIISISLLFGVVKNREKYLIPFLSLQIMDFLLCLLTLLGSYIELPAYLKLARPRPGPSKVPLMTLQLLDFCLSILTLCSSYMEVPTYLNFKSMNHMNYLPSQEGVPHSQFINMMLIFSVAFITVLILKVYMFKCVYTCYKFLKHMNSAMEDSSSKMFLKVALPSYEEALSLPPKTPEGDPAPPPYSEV

[3] = target: T3, Flag-tagged murine LAPTM5 (Laptm5) (mouse) (UniProt Q61168); test: co-IP; IP from lysates of LAPTM5-overexpressing 786-O or Renca cells, with or without BMP4; Protein G magnetic beads, IgG control, immunoblot
T3 sequence: T2 sequence

[4] = target: Myc-tagged human BMP receptor 1A (BMPR1A) (human) (UniProt P36894); test: co-IP; serial IP: anti-Myc (first round) then anti-HA (second round) from 293T cells transfected with Flag-LAPTM5, HA-WWP2 and Myc-BMPR1A; immunoblot
[5] = target: HA-tagged full-length human WWP2 (human) (UniProt O00308); test: as above
[6] = target: Myc-tagged human BMP receptor 1A (BMPR1A) (human) (UniProt P36894); test: co-IP; 786-O cells transfected with Myc-BMPR1A and Flag-LAPTM5 or HA-WWP2 (or all three), with or without BMP4; IP and immunoblot

binding [1]: binds
Molecule: Myc-tagged WWP2 deletion mutant 407–868 (from UniProt O00308 407-868) (domain or fragment)

binding [2]: binds
Molecule: WWP2 in 4T1^luci cells (from UniProt Q9DBH0 1-870) (enzyme)

binding [3]: binds
Molecule: WWP2, endogenous in Renca cells (from UniProt Q9DBH0 1-870) (enzyme)

binding [4]: binds
binding [5]: binds
binding [6]: binds
B1: Flag-tagged human lysosomal protein transmembrane 5 (LAPTM5) (protein, UniProt Q13571 1-262)
chain: T1 sequence
